Results from the supplement of paper PMC10849652.
The list shows a part of the results.

Protein sequences, listed by entry. Tags and fused reporters are not part of them. Lines headed by an entry give the natural chain unless they say otherwise; changes in a name come on top.
UniProt Q86YB8: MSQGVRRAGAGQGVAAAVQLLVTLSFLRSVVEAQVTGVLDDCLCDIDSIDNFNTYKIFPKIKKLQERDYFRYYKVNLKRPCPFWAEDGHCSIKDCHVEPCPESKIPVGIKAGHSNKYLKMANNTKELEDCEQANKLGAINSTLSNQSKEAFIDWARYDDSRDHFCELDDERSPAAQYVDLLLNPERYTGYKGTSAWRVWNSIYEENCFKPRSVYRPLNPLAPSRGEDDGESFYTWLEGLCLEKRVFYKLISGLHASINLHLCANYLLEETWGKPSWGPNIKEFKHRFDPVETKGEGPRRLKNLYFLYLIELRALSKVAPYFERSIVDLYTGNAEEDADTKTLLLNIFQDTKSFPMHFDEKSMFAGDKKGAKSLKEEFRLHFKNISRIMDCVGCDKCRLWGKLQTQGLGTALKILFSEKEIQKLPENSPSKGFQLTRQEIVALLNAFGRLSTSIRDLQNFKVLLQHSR
UniProt Q0VG06: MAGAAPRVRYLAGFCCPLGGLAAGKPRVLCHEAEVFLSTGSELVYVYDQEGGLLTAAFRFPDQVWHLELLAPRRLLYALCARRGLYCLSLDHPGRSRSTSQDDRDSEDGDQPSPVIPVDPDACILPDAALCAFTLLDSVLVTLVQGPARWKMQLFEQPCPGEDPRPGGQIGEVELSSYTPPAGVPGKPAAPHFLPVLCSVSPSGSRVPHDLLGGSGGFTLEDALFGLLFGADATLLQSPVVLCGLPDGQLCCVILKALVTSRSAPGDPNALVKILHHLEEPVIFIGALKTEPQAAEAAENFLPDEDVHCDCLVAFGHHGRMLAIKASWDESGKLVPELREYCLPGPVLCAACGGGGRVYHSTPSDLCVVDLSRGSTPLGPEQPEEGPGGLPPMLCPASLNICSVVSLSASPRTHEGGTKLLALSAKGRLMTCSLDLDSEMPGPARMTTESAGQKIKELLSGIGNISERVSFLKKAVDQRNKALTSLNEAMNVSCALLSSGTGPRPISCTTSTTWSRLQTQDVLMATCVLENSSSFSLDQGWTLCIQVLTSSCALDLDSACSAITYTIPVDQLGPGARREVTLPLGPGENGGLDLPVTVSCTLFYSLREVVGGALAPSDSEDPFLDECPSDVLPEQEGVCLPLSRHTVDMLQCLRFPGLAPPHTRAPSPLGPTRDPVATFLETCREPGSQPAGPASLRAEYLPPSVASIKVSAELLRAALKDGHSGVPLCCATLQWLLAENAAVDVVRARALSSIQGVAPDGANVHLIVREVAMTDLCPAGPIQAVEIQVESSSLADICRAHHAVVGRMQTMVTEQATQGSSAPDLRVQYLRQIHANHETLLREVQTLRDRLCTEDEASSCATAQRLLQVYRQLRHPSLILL
UniProt O75616: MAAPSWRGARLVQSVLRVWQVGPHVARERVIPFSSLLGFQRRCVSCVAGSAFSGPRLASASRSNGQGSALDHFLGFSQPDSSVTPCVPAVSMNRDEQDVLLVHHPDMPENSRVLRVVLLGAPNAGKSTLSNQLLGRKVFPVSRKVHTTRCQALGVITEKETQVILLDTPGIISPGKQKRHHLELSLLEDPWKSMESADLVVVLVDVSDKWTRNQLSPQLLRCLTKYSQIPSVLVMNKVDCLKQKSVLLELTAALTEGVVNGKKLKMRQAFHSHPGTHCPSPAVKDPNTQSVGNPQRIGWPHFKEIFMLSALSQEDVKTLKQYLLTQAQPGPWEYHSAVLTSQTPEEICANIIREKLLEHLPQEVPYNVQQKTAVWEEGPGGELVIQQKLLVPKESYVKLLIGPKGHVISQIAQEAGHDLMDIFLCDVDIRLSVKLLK
UniProt Q13158: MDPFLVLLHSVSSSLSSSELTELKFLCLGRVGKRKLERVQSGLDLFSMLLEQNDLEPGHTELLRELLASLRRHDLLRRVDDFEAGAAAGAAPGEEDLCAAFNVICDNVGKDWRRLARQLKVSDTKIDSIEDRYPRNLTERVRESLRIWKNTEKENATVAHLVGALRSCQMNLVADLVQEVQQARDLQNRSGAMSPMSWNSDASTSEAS
UniProt Q9UBC2: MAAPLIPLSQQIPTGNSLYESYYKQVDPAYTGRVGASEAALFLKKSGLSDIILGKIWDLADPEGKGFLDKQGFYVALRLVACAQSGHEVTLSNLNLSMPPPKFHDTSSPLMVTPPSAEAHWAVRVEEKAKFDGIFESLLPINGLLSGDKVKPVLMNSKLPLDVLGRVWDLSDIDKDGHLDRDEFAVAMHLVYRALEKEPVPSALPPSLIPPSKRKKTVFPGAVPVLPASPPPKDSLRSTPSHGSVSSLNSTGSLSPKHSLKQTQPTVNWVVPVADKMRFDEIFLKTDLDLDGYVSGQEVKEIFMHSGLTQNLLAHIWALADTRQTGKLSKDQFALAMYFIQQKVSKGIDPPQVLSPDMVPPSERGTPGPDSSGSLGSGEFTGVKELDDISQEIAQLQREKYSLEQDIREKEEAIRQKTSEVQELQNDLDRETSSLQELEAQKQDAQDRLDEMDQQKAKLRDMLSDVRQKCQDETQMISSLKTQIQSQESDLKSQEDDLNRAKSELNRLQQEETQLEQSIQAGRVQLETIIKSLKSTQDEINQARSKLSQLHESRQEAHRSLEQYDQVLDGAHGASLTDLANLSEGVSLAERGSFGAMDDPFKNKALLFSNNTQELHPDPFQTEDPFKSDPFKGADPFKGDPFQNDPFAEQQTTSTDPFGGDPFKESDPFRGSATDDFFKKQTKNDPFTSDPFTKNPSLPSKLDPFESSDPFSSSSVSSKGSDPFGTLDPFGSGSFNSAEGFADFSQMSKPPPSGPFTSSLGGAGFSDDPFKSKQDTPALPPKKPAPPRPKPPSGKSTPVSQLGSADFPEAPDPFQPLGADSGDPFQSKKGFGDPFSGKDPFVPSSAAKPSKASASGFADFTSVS
UniProt Q6P587: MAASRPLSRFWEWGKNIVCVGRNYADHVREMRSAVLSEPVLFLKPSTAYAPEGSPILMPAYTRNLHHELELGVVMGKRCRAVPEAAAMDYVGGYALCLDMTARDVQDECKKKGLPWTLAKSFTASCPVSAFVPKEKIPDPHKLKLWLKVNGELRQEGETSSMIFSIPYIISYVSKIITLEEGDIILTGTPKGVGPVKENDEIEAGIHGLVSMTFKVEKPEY
UniProt Q13216, whole entry, looked up: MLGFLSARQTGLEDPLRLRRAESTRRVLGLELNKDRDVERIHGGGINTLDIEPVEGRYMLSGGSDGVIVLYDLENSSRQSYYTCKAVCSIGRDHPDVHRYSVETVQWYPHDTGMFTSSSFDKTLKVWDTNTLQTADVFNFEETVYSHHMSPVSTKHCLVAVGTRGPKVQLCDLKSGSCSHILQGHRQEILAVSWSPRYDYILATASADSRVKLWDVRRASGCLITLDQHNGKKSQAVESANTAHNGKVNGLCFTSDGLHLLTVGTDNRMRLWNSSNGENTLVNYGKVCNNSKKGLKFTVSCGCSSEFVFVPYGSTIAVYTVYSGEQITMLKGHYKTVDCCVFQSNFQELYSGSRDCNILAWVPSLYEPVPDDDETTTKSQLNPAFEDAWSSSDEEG
UniProt Q9NQT5, whole entry, looked up: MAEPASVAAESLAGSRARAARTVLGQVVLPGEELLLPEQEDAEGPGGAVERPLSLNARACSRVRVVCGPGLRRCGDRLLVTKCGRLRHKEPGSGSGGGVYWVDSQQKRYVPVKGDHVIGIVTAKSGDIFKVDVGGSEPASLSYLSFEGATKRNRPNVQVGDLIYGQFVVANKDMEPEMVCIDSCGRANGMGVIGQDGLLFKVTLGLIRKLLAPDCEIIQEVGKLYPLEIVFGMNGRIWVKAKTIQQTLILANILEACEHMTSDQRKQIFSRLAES
UniProt P07814: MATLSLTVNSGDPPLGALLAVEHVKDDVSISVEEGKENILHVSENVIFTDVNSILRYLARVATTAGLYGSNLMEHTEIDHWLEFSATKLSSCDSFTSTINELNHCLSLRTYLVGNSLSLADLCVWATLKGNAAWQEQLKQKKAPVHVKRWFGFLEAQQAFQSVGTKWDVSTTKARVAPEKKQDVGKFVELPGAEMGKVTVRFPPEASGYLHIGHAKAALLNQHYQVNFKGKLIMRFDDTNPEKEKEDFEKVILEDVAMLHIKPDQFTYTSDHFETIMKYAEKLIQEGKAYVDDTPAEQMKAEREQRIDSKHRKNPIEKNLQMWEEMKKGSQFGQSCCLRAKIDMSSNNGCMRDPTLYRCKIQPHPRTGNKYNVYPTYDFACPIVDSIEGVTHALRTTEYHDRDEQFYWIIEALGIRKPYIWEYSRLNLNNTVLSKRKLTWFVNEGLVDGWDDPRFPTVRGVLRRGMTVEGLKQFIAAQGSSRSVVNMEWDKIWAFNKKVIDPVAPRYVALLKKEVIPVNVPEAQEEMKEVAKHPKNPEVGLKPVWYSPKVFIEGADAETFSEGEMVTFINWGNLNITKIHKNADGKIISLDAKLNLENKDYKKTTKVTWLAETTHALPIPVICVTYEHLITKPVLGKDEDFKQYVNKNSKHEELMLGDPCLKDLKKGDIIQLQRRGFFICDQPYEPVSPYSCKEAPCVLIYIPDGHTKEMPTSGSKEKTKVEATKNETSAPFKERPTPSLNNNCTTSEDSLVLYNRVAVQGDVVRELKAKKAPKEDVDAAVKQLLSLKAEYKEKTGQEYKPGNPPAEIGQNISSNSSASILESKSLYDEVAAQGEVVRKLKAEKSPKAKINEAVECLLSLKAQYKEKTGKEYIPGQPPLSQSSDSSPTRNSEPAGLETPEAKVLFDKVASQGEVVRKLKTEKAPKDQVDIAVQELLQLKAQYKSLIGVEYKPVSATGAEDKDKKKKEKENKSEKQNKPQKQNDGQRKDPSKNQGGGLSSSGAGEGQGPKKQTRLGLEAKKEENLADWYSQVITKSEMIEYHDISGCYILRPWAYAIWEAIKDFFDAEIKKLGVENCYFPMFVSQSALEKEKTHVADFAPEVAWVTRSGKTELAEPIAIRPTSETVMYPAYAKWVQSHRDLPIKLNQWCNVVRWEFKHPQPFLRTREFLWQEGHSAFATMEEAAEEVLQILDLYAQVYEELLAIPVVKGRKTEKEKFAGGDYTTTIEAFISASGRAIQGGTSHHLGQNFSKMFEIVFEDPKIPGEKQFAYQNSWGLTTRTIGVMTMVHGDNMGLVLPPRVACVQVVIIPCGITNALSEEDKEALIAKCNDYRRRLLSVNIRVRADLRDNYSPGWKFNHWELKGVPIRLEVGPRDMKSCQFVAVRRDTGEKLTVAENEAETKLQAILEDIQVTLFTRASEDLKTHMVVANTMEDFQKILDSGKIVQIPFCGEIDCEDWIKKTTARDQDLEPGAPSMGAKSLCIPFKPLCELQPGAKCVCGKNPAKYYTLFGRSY
UniProt Q96B26, whole entry, looked up: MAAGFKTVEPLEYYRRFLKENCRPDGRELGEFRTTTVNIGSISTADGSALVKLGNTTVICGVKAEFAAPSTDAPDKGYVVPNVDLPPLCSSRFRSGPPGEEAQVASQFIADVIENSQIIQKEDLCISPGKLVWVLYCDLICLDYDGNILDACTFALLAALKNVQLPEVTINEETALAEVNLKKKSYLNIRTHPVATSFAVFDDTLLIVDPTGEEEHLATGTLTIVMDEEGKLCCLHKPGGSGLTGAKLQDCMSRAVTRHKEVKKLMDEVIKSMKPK
UniProt P11474: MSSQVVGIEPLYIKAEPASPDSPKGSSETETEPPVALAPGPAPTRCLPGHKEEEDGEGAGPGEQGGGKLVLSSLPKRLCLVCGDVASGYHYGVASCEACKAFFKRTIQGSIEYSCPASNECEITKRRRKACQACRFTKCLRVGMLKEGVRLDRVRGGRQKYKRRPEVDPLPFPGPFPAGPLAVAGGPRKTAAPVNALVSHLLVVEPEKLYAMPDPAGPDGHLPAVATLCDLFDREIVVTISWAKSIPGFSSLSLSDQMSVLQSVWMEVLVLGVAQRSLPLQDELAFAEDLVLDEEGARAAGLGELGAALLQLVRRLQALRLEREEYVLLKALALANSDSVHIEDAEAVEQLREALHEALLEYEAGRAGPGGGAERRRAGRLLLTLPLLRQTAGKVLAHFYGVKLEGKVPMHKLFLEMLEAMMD
UniProt P16422: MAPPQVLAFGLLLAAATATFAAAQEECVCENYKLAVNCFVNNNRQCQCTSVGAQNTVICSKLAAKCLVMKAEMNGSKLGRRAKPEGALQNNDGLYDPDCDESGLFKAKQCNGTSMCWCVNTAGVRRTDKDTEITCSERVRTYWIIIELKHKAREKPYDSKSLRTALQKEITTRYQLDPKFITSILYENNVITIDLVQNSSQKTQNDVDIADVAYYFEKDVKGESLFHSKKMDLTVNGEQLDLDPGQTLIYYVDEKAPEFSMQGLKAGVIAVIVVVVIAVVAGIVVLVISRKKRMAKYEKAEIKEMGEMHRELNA

What follows are targets tested with COc1cc(Nc2ncc3c(n2)-c2ccc(Cl)cc2C(c2c(F)cccc2OC)=NC3)ccc1C(=O)O [alisertib] (assay: log2 fold change, soluble protein after heating vs DMSO (PISA); higher = thermal stabilisation; K562 cells, 10 uM, 30 min; active = over 0.2 and 3.5 SD of the protein, either way, in both replicates (recomputed)).
Summary of the method: (§1)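 Quantification of soluble protein used TMTpro 16plex LC-MS/MS, with channel sums equalised. Samples were the supernatant after 21,000xg for 90 min of pooled aliquots from K562 cells (2×10^6 cells/mL) treated with 10 μM compound for 30 min, heated for 3 min over 48°C-58°C, and extracted in PBS with 0.5% NP-40 at 4°C. Values, from duplicates, describe thermal stability against control samples on a log2 fold-change scale.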

log2 fold change, inactive:
ERG28 (UniProt Q9UKR5) -0.229
ERO1B (UniProt Q86YB8) -0.014
FAAP100 (UniProt Q0VG06) -0.044
FAM160B1 (UniProt Q5W0V3) -0.096
ERAL1 (UniProt O75616) -0.076
EWSR1 isoform 5 (UniProt Q01844) -0.028
FADD (UniProt Q13158) -0.246
ERGIC2 (UniProt Q96RQ1) -0.011
EPS15L1 isoform 2 (UniProt Q9UBC2) -0.021
EXOC6 (UniProt Q8TAG9) -0.013
F2 (UniProt P00734) -0.026
EXOC8 (UniProt Q8IYI6) 0.014
FAHD1 (UniProt Q6P587) -0.039
ERP29 (UniProt P30040) -0.069
ERCC8 (UniProt Q13216) 0.01
ERO1A (UniProt Q96HE7) -0.021
EXOSC3 (UniProt Q9NQT5) -0.102
FAM133B (UniProt Q5BKY9) -0.053
EPHA6 (UniProt Q9UF33) 0.077
ERCC6 (UniProt Q03468) 0.102
FAM162A (UniProt Q96A26) -0.138
FABP5 (UniProt Q01469) 0.85
EPRS (UniProt P07814) -0.072
FAM136A (UniProt Q96C01) -0.022
EPHX1 (UniProt P07099) -0.03
EPM2AIP1 (UniProt Q7L775) -0.132
EXOSC8 (UniProt Q96B26) -0.043
ESRRA (UniProt P11474) 0.183
EPCAM (UniProt P16422) 0.015
FAM118A (UniProt Q9NWS6) 0.383

Each target was assayed with COc1cc2nc(-c3cc(F)ccc3O)nc(N[C@@H]3CNC[C@H]3C(C)(C)O)c2cc1OC in the same assay as above.
Summary of the method: as §1

log2 fold change, inactive:
ERG28 (UniProt Q9UKR5) -0.01
ERO1B (UniProt Q86YB8) -0.058
FAAP100 (UniProt Q0VG06) -0.095
FAM160B1 (UniProt Q5W0V3) -0.092
ERAL1 (UniProt O75616) -0.212
EWSR1 isoform 5 (UniProt Q01844) -0.062
FADD (UniProt Q13158) 0.044
ERGIC2 (UniProt Q96RQ1) -0.102
EPS15L1 isoform 2 (UniProt Q9UBC2) 0.023
EXOC6 (UniProt Q8TAG9) 0.119
F2 (UniProt P00734) -0.146
EXOC8 (UniProt Q8IYI6) 0.038
FAHD1 (UniProt Q6P587) -0.014
ERP29 (UniProt P30040) -0.032
ERCC8 (UniProt Q13216) -0.09
ERO1A (UniProt Q96HE7) -0.024
EXOSC3 (UniProt Q9NQT5) 0.008
FAM133B (UniProt Q5BKY9) -0.042
EPHA6 (UniProt Q9UF33) 0.325
ERCC6 (UniProt Q03468) -0.002
FAM162A (UniProt Q96A26) -0.031
FABP5 (UniProt Q01469) -0.076
EPRS (UniProt P07814) -0.013
FAM136A (UniProt Q96C01) -0.049
EPHX1 (UniProt P07099) -0.025
EPM2AIP1 (UniProt Q7L775) 0.046
EXOSC8 (UniProt Q96B26) -0.026
ESRRA (UniProt P11474) 0.044
EPCAM (UniProt P16422) 0.033
FAM118A (UniProt Q9NWS6) 0.023

What follows are targets tested with COc1cc2ncnc(Nc3ccc(F)c(Cl)c3)c2cc1OCCCN1CCOCC1 [gefitinib] in the same assay as above.
Summary of the method: as §1

log2 fold change, inactive:
ERG28 (UniProt Q9UKR5) 0.097
ERO1B (UniProt Q86YB8) 0.056
FAAP100 (UniProt Q0VG06) 0.036
FAM160B1 (UniProt Q5W0V3) 0.047
ERAL1 (UniProt O75616) 0.166
EWSR1 isoform 5 (UniProt Q01844) -0.024
FADD (UniProt Q13158) -0.021
ERGIC2 (UniProt Q96RQ1) -0.01
EPS15L1 isoform 2 (UniProt Q9UBC2) -0.048
EXOC6 (UniProt Q8TAG9) -0.037
F2 (UniProt P00734) -0.175
EXOC8 (UniProt Q8IYI6) -0.047
FAHD1 (UniProt Q6P587) 0.016
ERP29 (UniProt P30040) 0.01
ERCC8 (UniProt Q13216) 0.073
ERO1A (UniProt Q96HE7) -0.002
EXOSC3 (UniProt Q9NQT5) -0.025
FAM133B (UniProt Q5BKY9) 0.039
EPHA6 (UniProt Q9UF33) 0.1
ERCC6 (UniProt Q03468) 0.026
FAM162A (UniProt Q96A26) -0.009
FABP5 (UniProt Q01469) 0.027
EPRS (UniProt P07814) -0.013
FAM136A (UniProt Q96C01) 0
EPHX1 (UniProt P07099) 0.046
EPM2AIP1 (UniProt Q7L775) 0.014
EXOSC8 (UniProt Q96B26) -0.032
ESRRA (UniProt P11474) -0.083
EPCAM (UniProt P16422) -0.1
FAM118A (UniProt Q9NWS6) 0.022
